# Test results taken from US20150064179A1 (BIOTEST, published 2015).
# Sequences of proteins named here, by UniProt entry; tags and fusion partners are left off. A change or cut given only in a name is not applied to a line headed by its entry.
# UniProt P22301: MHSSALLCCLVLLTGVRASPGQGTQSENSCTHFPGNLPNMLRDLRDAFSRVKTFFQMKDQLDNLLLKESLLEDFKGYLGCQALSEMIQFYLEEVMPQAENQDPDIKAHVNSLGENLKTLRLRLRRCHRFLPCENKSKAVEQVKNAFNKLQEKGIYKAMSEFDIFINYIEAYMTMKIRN
# No constants are given. Whether binding was seen depends on the method and setting. Some entries that bind do so weakly or less than the wild type.
# B1: Fab fragment of BT-063 (variant hVH26/hVL7) (Fab, V domains shown)
# VH: EVQLVESGGGLVQPGGSLRLSCAASGFSFATYGVHWVRQSPGKGLEWLGVIWRGGSTDYSAAFMSRLTISKDNSKNTVYLQMNSLRAEDTAVYFCAKQAYGHYMDYWGQGTSVTVSS
# VL: DVVMTQSPLSLPVTLGQPASISCRSSQNIVHSNGNTYLEWYLQRPGQSPRLLIYKVSNRFSGVPDRFSGSGSGTDFTLKISRVEAEDVGVYYCFQGSHVPWTFGQGTKVEIK
# Experiments:
# [1] = molecular target: human IL-10 expressed in E. coli for crystallisation (human) (UniProt P22301); test: X-ray co-crystal structure at 3.48 A
# [2] = molecular target: human IL-10 expressed in E. coli for crystallisation (human) (UniProt P22301); test: complex formation, size exclusion chromatography
binder,measurement,setting,value
B1,binding,[1],binds
same,binding,[2],binds
